Paper PMC11840727
No constants are given. Whether binding was seen depends on the method and setting. In cells and extracts the contact can be indirect. Some binding calls cover weakened binding; strength is not graded here.

By UniProt entry, the sequences of proteins in these tests, tags left out. Where a name states a change or a piece, a line headed by the entry shows the natural chain unless it says otherwise. Residues count along the entry.
UniProt P01106: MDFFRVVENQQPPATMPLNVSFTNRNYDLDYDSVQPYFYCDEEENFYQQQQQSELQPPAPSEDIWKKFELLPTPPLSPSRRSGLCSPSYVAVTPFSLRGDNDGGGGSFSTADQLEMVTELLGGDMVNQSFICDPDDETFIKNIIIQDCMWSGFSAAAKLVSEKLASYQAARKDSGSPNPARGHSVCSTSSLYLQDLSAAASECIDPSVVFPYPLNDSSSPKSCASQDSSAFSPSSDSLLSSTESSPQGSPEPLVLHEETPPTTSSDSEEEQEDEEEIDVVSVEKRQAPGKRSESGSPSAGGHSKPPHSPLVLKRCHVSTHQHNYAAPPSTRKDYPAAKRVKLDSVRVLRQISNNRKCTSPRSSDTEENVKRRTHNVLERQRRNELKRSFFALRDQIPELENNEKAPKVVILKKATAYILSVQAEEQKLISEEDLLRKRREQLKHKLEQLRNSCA
endogenous MYC (human (endogenous in UM-UC-3)): residues 16-454 of P01106
MYC N-terminal region (amino acids 1-221): residues 16-236 of P01106
MYC C-terminal region (amino acids 220-439): residues 235-454 of P01106
UniProt P51784: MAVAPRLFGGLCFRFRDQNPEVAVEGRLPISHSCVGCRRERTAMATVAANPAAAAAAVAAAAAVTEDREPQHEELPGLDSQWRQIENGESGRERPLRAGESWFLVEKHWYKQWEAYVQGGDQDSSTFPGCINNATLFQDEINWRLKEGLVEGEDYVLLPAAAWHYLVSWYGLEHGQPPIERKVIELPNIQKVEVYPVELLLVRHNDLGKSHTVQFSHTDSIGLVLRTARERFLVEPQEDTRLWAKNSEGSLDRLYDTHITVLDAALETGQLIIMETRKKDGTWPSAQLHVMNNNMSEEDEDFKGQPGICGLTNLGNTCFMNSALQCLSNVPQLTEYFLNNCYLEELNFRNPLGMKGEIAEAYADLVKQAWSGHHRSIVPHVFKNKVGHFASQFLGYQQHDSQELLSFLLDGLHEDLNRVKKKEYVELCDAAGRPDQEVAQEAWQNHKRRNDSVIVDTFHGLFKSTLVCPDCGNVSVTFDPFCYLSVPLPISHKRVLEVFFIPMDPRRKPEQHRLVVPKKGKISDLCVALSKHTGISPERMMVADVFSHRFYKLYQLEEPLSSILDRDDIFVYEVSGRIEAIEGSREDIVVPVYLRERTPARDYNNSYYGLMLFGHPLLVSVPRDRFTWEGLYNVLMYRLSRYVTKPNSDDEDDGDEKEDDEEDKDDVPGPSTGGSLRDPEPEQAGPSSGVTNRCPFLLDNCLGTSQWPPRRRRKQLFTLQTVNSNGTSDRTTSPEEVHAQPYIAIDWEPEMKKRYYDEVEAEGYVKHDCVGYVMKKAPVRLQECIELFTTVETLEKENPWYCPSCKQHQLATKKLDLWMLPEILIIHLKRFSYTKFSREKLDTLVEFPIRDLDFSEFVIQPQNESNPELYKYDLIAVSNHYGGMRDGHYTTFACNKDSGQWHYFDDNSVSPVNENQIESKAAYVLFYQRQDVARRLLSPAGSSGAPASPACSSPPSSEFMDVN

Key:
GST-MYC protein = GST-MYC protein (UniProt P01106); assay: pull-down; lysate of transfected 293T cells incubated overnight with 2 µg GST or GST-MYC protein, then glutathione magnetic beads 2 h; Western blot; only the target purified
[1] = biological target: MYC (exogenous; Flag-MYC or HA-MYC) (UniProt P01106); assay: co-IP; 293T cells transfected with the plasmids; lysates incubated with primary antibody overnight at 4°C, then Protein A/G magnetic beads 3 h at 4°C, four washes, Western blot; USP11-MYC also tested with DLGAP5 knockdown or overexpression
[2] = biological target: MYC C-terminal region (amino acids 220-439) (UniProt P01106); assay: as above
[3] = biological target: MYC N-terminal region (amino acids 1-221) (UniProt P01106); assay: as above
[4] = biological target: endogenous MYC (human (endogenous in UM-UC-3)) (UniProt P01106); assay: co-IP; endogenous proteins in BLCA cells (UM-UC-3; UM-UC-3-P and GEM-resistant UM-UC-3-R); Protein A/G magnetic beads, Western blot

Row | binding [4] | Substance | binding (GST-MYC protein) | binding [1] | binding [2] | binding [3]
1 |  | HA-USP11 (from UniProt P51784 1-963) (enzyme) | binds | binds | binds | binds
2 | binds | endogenous USP11 (from UniProt P51784 1-963) (enzyme) |  |  |  | 
